According to publication PMC8531357, “Regulation of plant phototropic growth by NPH3/RPT2-like substrate phosphorylation and 14-3-3 binding” (Nature Communications, 2021):
No constants are given. Whether binding was seen depends on the method and setting. Tags and fused reporters may be left off the sequences shown.

How the values were obtained:
[1] = target: T1, GFP-NPH3 S744A (Arabidopsis) (UniProt Q9FMF5); test: far-Western, overlay or dot blot; GFP-Trap immunoprecipitates from etiolated seedlings maintained in darkness (D), separated by SDS-PAGE, on PVDF; probed with purified GST-14-3-3 or GST alone at 1 µM in 20 mM HEPES-KOH pH 7.7, 75 mM KCl, 0.1 mM EDTA, 1 mM DTT, 2% milk, 0.04% Tween-20; detected with anti-GST; both purified
T1 sequence: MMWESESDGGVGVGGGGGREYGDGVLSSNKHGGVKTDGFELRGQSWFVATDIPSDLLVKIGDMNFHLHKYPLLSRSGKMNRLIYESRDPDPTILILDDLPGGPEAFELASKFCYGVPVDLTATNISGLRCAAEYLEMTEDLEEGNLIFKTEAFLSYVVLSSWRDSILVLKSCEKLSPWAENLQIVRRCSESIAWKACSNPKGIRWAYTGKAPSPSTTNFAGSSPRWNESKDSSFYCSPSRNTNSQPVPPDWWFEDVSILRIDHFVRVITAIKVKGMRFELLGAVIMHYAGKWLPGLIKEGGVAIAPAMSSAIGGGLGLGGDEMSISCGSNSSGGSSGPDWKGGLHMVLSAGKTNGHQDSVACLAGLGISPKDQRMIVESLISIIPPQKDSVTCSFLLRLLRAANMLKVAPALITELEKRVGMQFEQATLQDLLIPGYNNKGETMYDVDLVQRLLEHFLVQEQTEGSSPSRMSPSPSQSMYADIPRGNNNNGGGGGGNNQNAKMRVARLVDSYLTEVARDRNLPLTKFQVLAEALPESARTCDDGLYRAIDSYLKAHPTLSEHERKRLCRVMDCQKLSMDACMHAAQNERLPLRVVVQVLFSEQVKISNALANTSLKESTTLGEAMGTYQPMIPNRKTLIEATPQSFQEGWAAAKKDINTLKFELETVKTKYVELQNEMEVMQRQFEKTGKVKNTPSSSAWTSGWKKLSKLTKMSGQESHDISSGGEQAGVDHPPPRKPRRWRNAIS

[2] = target: T1, GFP-NPH3 S744A (Arabidopsis); test: far-Western, overlay or dot blot; GFP-Trap immunoprecipitates from etiolated seedlings irradiated with 20 µmol m^-2 s^-1 blue light for 15 min (L), separated by SDS-PAGE, on PVDF; probed with purified GST-14-3-3 or GST alone at 1 µM in 20 mM HEPES-KOH pH 7.7, 75 mM KCl, 0.1 mM EDTA, 1 mM DTT, 2% milk, 0.04% Tween-20; detected with anti-GST; both purified

B1: GST-14-3-3 Epsilon (natural protein, Arabidopsis, UniProt P48347 1-254, looked up)
chain: MENEREKQVYLAKLSEQTERYDEMVEAMKKVAQLDVELTVEERNLVSVGYKNVIGARRASWRILSSIEQKEESKGNDENVKRLKNYRKRVEDELAKVCNDILSVIDKHLIPSSNAVESTVFFYKMKGDYYRYLAEFSSGAERKEAADQSLEAYKAAVAAAENGLAPTHPVRLGLALNFSVFYYEILNSPESACQLAKQAFDDAIAELDSLNEESYKDSTLIMQLLRDNLTLWTSDLNEEGDERTKGADEPQDEN
notes: Arabidopsis 14-3-3 isoform Epsilon (epsilon group member), expressed from pGEX-4T1 as a translational fusion with GST; source: E. coli BL21(DE3), purified (glutathione agarose)
binding [1]: no binding (tested: 1 µM) | binding [2]: no binding (tested: 1 µM)
